Laboratory results published in article PMC10061879.
These are yes or no findings as the source states them, for the method shown. In cells and extracts the contact can be indirect. Some entries that bind do so weakly or less than the wild type. Where a sequence is shown, tags or fusion partners need not be part of it. Blank lines part the entries; values can stand above or below the molecule they belong to.

The chains behind the UniProt entries cited, without tags or fusion partners.
UniProt P06241: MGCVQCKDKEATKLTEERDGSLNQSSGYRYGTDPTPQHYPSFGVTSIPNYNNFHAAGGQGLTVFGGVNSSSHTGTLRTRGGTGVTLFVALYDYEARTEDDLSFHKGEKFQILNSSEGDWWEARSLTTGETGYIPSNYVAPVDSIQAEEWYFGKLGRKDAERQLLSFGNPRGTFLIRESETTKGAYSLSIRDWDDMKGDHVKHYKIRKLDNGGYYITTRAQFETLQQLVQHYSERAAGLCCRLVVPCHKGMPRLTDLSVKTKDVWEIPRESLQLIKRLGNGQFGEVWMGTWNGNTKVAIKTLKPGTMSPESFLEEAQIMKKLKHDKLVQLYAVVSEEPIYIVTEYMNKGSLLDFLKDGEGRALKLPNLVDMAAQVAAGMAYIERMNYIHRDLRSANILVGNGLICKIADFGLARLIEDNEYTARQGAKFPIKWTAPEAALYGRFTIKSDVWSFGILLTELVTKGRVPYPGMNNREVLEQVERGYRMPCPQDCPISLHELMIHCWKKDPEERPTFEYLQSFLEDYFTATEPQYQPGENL

Tests used:
MAG (full-length)-FC = biological target: T1, MAG (full-length)-FC (UniProt P20916); assay: co-IP; forward and reverse co-immunoprecipitation of proteins expressed from CMV-MAG (full-length)-FC and pLVX-FYN-strepII plasmids; cells and buffers not stated
T1 sequence: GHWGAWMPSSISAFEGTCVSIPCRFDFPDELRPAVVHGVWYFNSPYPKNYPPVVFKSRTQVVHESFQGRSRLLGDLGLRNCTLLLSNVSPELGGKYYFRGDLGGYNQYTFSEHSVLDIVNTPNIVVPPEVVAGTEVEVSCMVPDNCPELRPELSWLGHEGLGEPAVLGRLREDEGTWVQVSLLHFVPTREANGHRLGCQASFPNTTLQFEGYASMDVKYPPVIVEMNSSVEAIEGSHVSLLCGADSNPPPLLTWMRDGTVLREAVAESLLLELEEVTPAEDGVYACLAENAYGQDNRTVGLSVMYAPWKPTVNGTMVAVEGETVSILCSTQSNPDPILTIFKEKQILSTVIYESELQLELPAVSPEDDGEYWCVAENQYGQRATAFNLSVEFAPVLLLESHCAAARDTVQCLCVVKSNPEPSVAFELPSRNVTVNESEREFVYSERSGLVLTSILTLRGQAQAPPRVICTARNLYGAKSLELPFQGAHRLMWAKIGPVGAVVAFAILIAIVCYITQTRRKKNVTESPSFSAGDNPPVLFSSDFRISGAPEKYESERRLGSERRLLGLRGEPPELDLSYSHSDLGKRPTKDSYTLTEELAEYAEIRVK

FYN-strepII = FYN-strepII (UniProt P06241); assay: as above

binding (MAG (full-length)-FC): binds
Molecule: FYN-strepII (from UniProt P06241 1-537) (enzyme)

binding (FYN-strepII): binds
B1: MAG (full-length)-FC (Fc fusion, UniProt P20916 20-626)
chain: T1 sequence
